No constants are given. Whether binding was seen depends on the method and setting. Some binding calls cover weakened binding; strength is not graded here.

Protein sequences, listed by entry. Tags and fused reporters are not part of them. Residues count along the entry.
UniProt P06276, residues 29-602: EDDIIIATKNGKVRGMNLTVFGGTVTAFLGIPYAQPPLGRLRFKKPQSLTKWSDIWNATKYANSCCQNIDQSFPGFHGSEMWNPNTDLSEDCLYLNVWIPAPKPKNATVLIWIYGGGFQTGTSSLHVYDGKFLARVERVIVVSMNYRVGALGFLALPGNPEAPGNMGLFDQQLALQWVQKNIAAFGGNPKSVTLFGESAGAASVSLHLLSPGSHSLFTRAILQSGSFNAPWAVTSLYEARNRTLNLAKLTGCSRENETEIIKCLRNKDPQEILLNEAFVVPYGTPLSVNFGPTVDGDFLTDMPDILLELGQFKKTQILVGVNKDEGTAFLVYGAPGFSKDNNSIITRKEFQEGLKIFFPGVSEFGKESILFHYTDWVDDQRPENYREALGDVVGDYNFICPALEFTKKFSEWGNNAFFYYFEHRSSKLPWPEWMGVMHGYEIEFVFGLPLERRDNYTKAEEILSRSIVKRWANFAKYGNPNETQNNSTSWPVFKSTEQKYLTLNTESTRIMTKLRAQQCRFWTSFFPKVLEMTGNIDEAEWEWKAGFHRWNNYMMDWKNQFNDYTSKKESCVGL

The experiment addresses butyrylcholinesterase (human) (UniProt P06276). The experiment is described as follows: screen of bead-bound combinatorial peptide library with radiolabeled butyrylcholinesterase plus butyrylthiocholine/DTNB activity stain.
For AFTNQE [AFTNQE (SEQ ID NO: 7)], the binding result is recorded as “binds”.

Take AKDQIP [AKDQIP (SEQ ID NO: 1)]: the binding result was “binds”.

AKGDQN [AKGDQN (SEQ ID NO: 2)]: the binding entry is on record as “binds”.

For the molecule WKDAVQ [WKDAVQ (SEQ ID NO: 3)], the binding result was “binds”.

Consider GTNYHQ [GTNYHQ (SEQ ID NO: 8)], for which the binding entry is on record as “binds”.

As for AEVDPG [AEVDPG (SEQ ID NO: 9)], the binding entry was “binds”.

Take AFTNGE [AFTNGE (SEQ ID NO: 6)]: the binding entry is on record as “binds”.
